The chains behind the UniProt entries cited, without tags or fusion partners. Where a name states a change or a piece, a line headed by the entry shows the natural chain unless it says otherwise.
UniProt C4M7K9: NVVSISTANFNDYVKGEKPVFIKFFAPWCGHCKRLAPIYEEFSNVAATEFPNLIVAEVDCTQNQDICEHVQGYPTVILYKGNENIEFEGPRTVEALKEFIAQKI
UniProt C4LVR9: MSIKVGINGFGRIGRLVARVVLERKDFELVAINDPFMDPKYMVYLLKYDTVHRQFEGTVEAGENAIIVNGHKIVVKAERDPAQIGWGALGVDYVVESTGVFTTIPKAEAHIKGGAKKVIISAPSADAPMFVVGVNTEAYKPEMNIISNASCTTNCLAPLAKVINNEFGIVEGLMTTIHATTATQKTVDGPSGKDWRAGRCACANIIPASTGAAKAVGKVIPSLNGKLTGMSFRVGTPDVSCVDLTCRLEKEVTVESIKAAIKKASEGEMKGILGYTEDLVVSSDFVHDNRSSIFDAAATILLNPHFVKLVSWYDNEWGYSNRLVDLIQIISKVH
UniProt C4M549: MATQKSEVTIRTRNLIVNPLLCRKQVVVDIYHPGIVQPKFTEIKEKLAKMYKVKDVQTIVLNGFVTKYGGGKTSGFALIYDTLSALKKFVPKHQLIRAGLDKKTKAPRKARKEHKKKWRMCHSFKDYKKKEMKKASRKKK
UniProt C4M7U2: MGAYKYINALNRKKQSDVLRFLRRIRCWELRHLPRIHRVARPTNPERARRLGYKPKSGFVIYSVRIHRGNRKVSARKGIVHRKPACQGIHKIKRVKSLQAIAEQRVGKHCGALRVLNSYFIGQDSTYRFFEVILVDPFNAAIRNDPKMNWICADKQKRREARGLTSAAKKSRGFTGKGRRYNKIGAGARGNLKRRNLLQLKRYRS
UniProt C4M2T6: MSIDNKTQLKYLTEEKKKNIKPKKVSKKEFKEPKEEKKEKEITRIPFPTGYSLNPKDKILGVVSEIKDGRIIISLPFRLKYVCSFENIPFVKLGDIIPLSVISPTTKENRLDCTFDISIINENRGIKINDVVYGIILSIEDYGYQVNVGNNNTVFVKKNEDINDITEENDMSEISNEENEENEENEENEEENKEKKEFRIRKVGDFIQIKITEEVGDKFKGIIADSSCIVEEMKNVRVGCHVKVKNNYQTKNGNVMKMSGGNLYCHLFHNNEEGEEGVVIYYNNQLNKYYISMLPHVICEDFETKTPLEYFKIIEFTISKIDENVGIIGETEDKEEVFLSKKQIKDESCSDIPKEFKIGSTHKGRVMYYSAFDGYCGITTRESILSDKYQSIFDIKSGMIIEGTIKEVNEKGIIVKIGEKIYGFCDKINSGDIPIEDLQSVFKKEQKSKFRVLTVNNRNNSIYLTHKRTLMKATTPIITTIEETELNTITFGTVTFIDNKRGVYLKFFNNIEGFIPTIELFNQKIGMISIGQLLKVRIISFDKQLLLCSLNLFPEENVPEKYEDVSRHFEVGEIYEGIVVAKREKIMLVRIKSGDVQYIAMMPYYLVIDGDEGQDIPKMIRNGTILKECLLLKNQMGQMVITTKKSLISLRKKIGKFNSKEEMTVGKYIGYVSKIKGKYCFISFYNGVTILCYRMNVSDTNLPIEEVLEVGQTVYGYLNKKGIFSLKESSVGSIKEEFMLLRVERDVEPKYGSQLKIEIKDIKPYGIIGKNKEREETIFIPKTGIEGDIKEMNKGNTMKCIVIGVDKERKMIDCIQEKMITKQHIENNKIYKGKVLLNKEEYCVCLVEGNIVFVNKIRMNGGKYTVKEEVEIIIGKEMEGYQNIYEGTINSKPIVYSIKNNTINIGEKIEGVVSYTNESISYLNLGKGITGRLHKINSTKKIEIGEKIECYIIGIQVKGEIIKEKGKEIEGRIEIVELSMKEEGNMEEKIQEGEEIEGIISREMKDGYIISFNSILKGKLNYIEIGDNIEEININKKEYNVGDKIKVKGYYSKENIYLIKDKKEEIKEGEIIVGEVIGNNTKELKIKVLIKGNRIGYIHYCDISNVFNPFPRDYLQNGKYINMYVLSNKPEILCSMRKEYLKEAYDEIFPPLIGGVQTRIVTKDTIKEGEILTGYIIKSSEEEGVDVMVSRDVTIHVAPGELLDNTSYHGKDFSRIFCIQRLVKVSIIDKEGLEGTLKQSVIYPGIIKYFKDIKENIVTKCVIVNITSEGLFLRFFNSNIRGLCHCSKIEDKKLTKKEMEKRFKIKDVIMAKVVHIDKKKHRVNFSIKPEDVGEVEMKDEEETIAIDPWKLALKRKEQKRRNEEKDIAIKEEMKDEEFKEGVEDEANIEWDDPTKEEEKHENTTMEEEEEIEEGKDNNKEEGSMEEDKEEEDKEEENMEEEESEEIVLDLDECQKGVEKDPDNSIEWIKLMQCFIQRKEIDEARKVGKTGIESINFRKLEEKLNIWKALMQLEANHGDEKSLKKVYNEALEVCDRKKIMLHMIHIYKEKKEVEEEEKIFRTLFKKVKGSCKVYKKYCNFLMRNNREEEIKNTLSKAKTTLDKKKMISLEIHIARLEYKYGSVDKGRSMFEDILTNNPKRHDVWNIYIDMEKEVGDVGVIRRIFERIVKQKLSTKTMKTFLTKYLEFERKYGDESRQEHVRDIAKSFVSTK
UniProt C4MAC9: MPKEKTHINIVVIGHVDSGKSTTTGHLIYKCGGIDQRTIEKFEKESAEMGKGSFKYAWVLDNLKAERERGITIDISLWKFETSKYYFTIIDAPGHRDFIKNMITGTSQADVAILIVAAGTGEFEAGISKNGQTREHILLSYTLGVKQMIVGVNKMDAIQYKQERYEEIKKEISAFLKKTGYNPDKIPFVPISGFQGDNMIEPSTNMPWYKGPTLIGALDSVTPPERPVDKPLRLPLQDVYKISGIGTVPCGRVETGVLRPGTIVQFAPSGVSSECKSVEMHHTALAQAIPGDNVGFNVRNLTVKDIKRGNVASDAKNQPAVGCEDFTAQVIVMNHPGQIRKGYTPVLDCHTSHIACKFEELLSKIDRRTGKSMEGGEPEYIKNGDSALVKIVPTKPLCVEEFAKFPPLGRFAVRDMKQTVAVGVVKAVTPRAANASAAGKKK

According to article PMC9912109:

B1: Peroxiredoxin (protein, UniProt C4M3Q0 1-233)
chain: MSCNQQKECCKKECQEKECCKECCCPRIKAFKKFINTFEKAQIGKEAPEFKAPAYCPCGSIKEIDINEYRGKYVVLLFYPLDWTFVCPTEMIGYSELAGQLKEIDCEVIGVSVDSVYCHQAWCEADKSKGGVGKLTFPLVSDIKRCISIKYGMLNVEAGIARRGYVIIDDKGKVRYIQMNDDGIGRSTEETIRIVKAIQFSDEHGAVCPLNWKPGKDTIEPTPDGIKKYLTAH
B2: WD repeat protein (protein, UniProt C4M3H5 1-341)
chain: MTQQEDTILCISINEQKSYIGIGTINGFYIFDINNPSKAIFHESIGGVGLIELKGESQYLLLVGGGPNPFESPTVACLYDLNNHQFVPSNKYSYARAIRRIRMTKKDTFIALENNIDVYCEGKVSTTFDTYDNPNGLFSVNYNSRKFAYPSITEGTITIHDLDNKTDVAVISAHEHSIYTLSPSFDSTIVTVSENGTLVRIWETTSGTLLKEFRRGMNPAHVYCVALSDDGKLVALHSENGTIHVFSLTEDIKNQIGWVAKGIGSIKWWFGVENNVSDYASLIIHDILPKTQTELYFLQSEYYKIGLFGLNGKYYESQLSLENQQLVDDKSAEIQTIQLNE
B3: NEDD4-binding protein 2 (protein, UniProt C4M2C9 1-261)
chain: MGLLFIIIISILAYLGYLIYKKELTWPIEDSIIYKKVLVMIEQANAIIKEKQKHLKTDEITSPKTEKTQKEIKTKSDDNVVHVPKPKGDEPVIEDRPNGKKEVVSGDKSILIDRIKSKHFDPVDQKFNEATQLREKYIKAKDAKSPEKNELFEKYEATRKEAEEMKKKATIAIFEEVNIYMVDEDAIDLHGLQIDGALDMVKDQINKRKAAGKSIVKVQCGMGHHNTVGFSKIKEAVVKYCQDEKLSFTEDKDHGFVNISL

Biological target: T1, EhCFIm25 (Entamoeba histolytica (endogenous in trophozoites, strain HM1:IMSS)) (UniProt C4M2T1)
T1 sequence: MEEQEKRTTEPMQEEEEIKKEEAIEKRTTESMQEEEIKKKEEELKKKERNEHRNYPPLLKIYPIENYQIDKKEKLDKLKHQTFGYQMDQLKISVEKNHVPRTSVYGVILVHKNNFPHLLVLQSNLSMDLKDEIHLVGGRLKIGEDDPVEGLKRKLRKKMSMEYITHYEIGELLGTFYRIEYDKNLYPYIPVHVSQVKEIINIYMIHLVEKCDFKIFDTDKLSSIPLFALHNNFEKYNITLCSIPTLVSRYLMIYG
Assay: affinity purification with mass spectrometry; CLIP: trophozoites UV-irradiated (254 nm, 30 min, 4°C); precleared nuclear extract (100 µg) incubated 2 h at 37°C with Dynabeads protein A/G coupled to anti-HsCFIm25 polyclonal antibody (GeneTex GTX115535); washes with 20 mM Tris pH 7.5, 0.5 M NaCl, 0.05% Tween 20; elution 0.1 M glycine pH 2.0; eight IPs pooled, LC-ESI-HDMSE, only proteins found in both MS replicates

| Molecule | binding |
| --- | --- |
| Thioredoxin_ putative (from UniProt C4M7K9) | binds |
| Glyceraldehyde-3- phosphate dehydrogenase (from UniProt C4LVR9) | binds |
| B1 | binds |
| B2 | binds |

Biological target: T1, EhCFIm25 (Entamoeba histolytica (endogenous in trophozoites, strain HM1:IMSS))
Assay: affinity purification with mass spectrometry; CLIP: trophozoites UV-irradiated (254 nm, 30 min, 4°C); precleared nuclear extract (100 µg) incubated 2 h at 37°C with Dynabeads protein A/G coupled to anti-EhCFIm25 polyclonal antibody (made by the authors); washes with 20 mM Tris pH 7.5, 0.5 M NaCl, 0.05% Tween 20; elution 0.1 M glycine pH 2.0; eight IPs pooled, LC-ESI-HDMSE, only proteins found in both MS replicates

| Molecule | binding |
| --- | --- |
| Ribosomal protein S24_ putative (from UniProt C4M549) | binds |
| 60S ribosomal protein L15 (from UniProt C4M7U2) | binds |
| S1 RNA binding domain-containing protein (from UniProt C4M2T6 1-1710) | binds |
| Elongation factor 1-alpha 1 (from UniProt C4MAC9 1-442) | binds |
| B3 | binds |

No constants are given. Whether binding was seen depends on the method and setting. In cells and extracts the contact can be indirect. These calls come from enrichment with a bait or labelling near it, and not all partners need be listed. Sequences can lack the tags named with a protein.
